Results reported in the supplement of paper PMC12067093, “Discovery and optimisation of a covalent ligand for TRIM25 and its application to targeted protein ubiquitination” (Chemical Science, 2025).
Some of the results follow.

By UniProt entry, the sequences of proteins in these tests, tags left out. Where a name states a change or a piece, a line headed by the entry shows the natural chain unless it says otherwise.
UniProt Q03519, whole entry, looked up: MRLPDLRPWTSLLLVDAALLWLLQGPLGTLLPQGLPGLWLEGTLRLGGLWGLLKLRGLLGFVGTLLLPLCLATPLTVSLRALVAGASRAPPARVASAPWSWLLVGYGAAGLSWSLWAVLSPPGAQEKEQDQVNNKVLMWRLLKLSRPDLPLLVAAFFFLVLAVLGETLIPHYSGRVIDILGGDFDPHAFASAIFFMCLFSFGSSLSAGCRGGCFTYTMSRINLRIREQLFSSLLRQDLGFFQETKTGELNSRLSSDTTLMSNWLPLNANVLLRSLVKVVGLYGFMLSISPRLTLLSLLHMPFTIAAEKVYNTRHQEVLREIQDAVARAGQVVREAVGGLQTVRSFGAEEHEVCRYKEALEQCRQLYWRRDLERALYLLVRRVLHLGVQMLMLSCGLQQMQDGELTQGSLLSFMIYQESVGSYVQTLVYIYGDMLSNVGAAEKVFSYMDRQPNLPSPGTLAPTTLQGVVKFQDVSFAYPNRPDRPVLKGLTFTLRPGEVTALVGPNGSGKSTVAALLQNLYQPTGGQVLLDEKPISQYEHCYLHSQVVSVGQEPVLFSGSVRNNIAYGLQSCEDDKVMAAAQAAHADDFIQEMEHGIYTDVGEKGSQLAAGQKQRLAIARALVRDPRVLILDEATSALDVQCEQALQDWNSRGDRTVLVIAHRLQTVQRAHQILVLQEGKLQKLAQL
UniProt Q9BTW9: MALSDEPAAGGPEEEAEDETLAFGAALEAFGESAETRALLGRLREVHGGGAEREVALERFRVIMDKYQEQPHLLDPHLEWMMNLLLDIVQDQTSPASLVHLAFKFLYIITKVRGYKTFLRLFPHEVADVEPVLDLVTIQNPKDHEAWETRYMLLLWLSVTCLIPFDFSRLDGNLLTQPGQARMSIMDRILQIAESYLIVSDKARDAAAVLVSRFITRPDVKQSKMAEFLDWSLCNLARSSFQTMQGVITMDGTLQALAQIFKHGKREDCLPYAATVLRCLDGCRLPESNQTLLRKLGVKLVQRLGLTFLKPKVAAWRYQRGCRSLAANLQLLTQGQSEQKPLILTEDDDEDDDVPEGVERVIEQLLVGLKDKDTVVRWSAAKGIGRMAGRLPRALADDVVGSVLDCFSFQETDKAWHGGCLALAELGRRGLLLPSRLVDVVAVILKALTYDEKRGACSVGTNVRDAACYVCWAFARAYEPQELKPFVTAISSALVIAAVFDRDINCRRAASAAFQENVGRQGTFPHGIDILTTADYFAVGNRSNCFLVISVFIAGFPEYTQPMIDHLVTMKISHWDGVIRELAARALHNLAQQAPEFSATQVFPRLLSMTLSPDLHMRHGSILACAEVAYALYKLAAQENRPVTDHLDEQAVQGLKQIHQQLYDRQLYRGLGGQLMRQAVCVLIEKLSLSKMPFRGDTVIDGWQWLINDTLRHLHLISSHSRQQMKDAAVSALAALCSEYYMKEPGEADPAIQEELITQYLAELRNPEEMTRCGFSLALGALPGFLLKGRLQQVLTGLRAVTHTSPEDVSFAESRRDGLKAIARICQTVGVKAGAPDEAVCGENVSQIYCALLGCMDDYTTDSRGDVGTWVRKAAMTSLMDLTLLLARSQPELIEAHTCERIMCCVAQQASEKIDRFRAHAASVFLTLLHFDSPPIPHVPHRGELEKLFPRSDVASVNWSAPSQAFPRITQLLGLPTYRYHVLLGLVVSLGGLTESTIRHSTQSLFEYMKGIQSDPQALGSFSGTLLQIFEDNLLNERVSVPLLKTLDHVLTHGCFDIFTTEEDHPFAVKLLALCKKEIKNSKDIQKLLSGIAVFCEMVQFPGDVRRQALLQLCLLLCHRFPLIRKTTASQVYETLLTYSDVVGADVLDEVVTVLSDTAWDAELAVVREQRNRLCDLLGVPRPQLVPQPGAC
UniProt P26639: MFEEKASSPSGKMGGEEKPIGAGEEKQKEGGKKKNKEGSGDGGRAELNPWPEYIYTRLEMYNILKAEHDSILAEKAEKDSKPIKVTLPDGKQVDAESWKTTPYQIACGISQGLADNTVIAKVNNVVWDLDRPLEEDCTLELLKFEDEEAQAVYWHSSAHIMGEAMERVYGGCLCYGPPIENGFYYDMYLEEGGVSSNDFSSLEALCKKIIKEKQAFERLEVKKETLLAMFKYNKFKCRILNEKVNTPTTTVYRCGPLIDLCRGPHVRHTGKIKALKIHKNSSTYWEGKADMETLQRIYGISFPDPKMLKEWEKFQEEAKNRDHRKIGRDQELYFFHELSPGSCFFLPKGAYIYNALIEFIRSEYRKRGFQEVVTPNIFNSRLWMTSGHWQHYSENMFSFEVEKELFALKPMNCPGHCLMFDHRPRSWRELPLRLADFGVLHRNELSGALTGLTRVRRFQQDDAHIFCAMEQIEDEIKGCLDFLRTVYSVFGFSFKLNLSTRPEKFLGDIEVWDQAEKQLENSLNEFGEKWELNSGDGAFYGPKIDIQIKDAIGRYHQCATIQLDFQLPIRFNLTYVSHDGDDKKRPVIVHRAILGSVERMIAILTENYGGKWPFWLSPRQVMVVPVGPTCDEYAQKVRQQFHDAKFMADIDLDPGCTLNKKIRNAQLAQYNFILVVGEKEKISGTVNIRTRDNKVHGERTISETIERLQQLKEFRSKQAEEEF
UniProt Q17R31: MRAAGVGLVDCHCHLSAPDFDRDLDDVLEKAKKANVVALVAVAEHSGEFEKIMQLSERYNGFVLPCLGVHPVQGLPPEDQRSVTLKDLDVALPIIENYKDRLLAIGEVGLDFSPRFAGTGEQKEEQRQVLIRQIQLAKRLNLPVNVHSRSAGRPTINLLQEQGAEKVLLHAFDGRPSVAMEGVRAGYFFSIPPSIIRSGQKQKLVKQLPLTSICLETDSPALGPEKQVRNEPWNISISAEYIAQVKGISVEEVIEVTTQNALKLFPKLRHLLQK
UniProt Q9BZK7: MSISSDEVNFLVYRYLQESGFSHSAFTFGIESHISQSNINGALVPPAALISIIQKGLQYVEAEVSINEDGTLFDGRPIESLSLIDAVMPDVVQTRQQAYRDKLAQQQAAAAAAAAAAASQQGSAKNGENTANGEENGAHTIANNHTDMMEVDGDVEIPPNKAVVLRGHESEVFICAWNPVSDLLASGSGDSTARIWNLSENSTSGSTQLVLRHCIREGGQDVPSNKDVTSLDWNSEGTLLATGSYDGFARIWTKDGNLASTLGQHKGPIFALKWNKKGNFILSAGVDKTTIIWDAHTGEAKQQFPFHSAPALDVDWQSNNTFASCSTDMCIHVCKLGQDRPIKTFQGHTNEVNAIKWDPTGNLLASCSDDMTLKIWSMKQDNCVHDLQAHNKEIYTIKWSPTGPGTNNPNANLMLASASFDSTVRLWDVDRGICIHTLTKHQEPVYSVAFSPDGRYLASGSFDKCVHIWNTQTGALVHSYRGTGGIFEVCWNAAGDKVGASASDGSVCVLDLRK
UniProt Q9Y4P3: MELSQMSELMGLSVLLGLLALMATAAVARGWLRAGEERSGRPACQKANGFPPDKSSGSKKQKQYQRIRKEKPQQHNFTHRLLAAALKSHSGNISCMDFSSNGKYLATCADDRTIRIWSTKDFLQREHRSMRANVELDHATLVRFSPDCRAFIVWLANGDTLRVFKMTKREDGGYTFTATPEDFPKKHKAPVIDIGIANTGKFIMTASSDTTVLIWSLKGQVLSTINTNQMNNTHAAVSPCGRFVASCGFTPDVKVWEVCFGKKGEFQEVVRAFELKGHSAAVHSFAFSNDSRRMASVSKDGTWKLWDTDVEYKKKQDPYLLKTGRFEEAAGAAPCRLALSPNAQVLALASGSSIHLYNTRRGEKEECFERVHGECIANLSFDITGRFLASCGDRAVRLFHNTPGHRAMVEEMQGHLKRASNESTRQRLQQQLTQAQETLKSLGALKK
UniProt O75347: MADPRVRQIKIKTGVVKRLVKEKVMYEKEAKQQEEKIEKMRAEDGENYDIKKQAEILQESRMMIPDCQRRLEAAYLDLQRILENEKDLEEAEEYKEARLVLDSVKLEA
UniProt Q9BW92: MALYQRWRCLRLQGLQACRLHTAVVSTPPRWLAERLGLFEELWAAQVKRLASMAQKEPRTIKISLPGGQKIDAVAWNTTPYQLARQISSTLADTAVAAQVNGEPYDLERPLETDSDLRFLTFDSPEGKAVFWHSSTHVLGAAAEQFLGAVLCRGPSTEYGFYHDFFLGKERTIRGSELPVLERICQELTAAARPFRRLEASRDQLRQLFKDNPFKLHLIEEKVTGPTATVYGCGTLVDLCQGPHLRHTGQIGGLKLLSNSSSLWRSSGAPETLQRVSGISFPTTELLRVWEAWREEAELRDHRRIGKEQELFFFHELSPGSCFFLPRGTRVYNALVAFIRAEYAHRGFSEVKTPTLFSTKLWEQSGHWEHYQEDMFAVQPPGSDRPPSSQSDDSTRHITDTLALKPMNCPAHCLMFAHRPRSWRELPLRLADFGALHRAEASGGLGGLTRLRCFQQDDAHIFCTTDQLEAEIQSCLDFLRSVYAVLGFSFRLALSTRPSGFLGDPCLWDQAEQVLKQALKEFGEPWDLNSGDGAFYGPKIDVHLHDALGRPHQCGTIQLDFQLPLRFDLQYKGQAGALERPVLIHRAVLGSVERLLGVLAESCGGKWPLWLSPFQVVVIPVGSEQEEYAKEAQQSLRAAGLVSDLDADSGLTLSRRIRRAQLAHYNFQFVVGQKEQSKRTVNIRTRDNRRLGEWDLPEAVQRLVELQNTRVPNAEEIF
UniProt Q6P1N9: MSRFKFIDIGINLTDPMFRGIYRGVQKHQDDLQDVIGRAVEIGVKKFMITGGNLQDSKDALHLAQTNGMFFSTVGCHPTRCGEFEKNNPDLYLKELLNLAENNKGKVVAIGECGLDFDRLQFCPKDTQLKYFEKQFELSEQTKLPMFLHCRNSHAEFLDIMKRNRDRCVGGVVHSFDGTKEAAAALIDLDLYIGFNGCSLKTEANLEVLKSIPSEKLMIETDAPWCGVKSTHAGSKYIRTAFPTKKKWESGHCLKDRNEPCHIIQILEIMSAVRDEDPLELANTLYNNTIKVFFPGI
UniProt O60343: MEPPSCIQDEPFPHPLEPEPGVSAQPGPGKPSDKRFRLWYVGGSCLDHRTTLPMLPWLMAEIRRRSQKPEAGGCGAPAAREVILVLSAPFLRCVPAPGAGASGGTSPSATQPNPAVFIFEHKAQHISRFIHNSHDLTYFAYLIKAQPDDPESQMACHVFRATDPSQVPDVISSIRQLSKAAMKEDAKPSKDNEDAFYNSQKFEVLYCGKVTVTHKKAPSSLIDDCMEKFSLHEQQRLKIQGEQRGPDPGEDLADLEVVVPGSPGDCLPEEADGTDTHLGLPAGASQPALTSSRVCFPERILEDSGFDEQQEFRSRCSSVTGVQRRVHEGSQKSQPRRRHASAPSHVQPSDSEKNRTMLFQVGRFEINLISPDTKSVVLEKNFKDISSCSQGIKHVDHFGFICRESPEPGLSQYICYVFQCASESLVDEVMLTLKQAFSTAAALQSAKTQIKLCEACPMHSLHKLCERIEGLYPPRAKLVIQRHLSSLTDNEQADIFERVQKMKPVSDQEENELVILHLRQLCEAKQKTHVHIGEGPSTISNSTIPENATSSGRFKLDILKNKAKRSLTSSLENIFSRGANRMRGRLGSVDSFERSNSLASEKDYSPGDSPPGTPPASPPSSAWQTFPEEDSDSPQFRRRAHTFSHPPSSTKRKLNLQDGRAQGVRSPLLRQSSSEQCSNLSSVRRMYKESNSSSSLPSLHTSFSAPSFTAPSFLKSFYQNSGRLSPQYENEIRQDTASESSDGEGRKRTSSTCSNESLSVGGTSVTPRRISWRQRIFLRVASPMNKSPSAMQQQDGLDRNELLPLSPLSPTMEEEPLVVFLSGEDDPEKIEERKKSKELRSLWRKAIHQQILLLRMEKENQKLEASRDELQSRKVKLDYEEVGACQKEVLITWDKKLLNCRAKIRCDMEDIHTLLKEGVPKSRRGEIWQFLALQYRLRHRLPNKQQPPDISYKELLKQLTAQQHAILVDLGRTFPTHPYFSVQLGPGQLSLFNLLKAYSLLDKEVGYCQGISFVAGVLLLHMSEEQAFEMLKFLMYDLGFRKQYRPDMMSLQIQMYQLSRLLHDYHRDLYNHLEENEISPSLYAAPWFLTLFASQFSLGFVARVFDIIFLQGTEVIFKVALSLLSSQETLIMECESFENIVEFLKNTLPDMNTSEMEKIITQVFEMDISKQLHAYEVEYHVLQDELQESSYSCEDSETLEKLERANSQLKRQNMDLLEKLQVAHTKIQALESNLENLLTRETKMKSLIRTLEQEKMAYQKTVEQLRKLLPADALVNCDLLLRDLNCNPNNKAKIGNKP
UniProt O43760: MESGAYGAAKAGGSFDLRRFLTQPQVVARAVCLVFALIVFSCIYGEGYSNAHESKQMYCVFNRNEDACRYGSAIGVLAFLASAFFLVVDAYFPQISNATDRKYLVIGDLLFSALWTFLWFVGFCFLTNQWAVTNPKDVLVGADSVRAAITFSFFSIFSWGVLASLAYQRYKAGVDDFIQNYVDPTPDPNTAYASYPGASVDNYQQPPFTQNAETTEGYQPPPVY

Compound: Cc1cc(ccc1-c1ccccc1)C(=O)N1CCCN(CC1)C(=O)CCl [compound 10]
Test: probe-labelled cysteine peptide fold change vs DMSO (competition) (log2 fold change); higher = less target engagement (more negative = stronger competition)
Details: THP-1, incubation time: 4 h
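Further: competitive profiling in live THP-1 cells: cysteine peptides tagged with an iodoacetamide desthiobiotin (IA-DTB) probe, intensity after compound treatment relative to DMSO-treated cells.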

| Target | probe-labelled cysteine peptide fold change (10 µM) | probe-labelled cysteine peptide fold change (50 µM) |
| --- | --- | --- |
| TAP2_Q03519_571_NNIAYGLQSCEDDK (UniProt Q03519) | 0.0716 | 0.287 |
| TBCD_Q9BTW9_1075_LLALCK (UniProt Q9BTW9) | 0.244 | 0.279 |
| TARS_P26639_254_CGPLIDLCR (UniProt P26639) | 0.126 | 0.153 |
| TAGLN2_P37802_63_DGTVLCELINALYPEGQAPVK (UniProt P37802) | 0.24 | 0.191 |
| TANC1_Q9C0D5_1808_CQIPVHSQENR (UniProt Q9C0D5) | -0.0397 | 0.45 |
| TACC1_O75410_715_CAQDYLAR (UniProt O75410) | -0.432 | -0.213 |
| TARSL2_A2RTX5_422_EQELFFFHDLSPGSCFFLPR (UniProt A2RTX5) | -0.1 | -0.0948 |
| TBCE_Q15813_301_LEQLILSDTGISSLHFPDAGIGCK (UniProt Q15813) | 0.043 | -0.11 |
| TATDN3_Q17R31_66_YNGFVLPCLGVHPVQGLPPEDQR (UniProt Q17R31) | 0.0121 | 1.04 |
| TBC1D23_Q9NUY8_399_QSIESGSIAGGEHLCFMGSGR (UniProt Q9NUY8) | -0.0826 | 0.167 |
| TBL1XR1_Q9BZK7_434_GICIHTLTK (UniProt Q9BZK7) | 0.0165 | 0.0285 |
| TAF10_Q12962_174_FISDIANDALQHCK (UniProt Q12962) | 0.0418 | -0.137 |
| TBL2_Q9Y4P3_335_FEEAAGAAPCR (UniProt Q9Y4P3) | -0.0079 | 0.135 |
| TAMM41_Q96BW9_285_DVEETLFQVAHDPDCGDVVR (UniProt Q96BW9) | -0.0697 | -0.115 |
| TBCA_O75347_67_MMIPDCQR (UniProt O75347) | 0.271 | -0.0236 |
| TARS_P26639_630_QVMVVPVGPTCDEYAQK (UniProt P26639) | -0.189 | 0.0903 |
| TCIRG1_Q13488_317_CLIAEAWCSVR (UniProt Q13488) | -0.0268 | 0.103 |
| TARS2_Q9BW92_322_EQELFFFHELSPGSCFFLPR (UniProt Q9BW92) | 0.235 | 0.288 |

| Target | probe-labelled cysteine peptide fold change (10 µM) | probe-labelled cysteine peptide fold change (50 µM) |
| --- | --- | --- |
| TBL3_Q12788_613_VWGLHCSR (UniProt Q12788) | 0.00409 | 0.216 |
| TACO1_Q9BSH4_256_KLDSLGLCSVSCALEFIPNSK (UniProt Q9BSH4) | -0.242 | -0.347 |
| TBL1XR1_Q9BZK7_434_LWDVDRGICIHTLTK (UniProt Q9BZK7) | -0.0216 | -0.194 |
| TATDN1_Q6P1N9_226_LMIETDAPWCGVK (UniProt Q6P1N9) | -0.116 | -0.0967 |
| TADA2B_Q86TJ2_32+35_CTECQDIELCPECFSAGAEIGHHR (UniProt Q86TJ2) | 0.314 | 0.417 |
| TAP2_Q03519_353_SFGAEEHEVCR (UniProt Q03519) | -0.184 | -0.261 |
| TBC1D9B_Q66K14_76_ILHQTQDSQVYWTVACGSSR (UniProt Q66K14) | 0.207 | 0.0269 |
| TBC1D4_O60343_885_LDYEEVGACQK (UniProt O60343) | -0.155 | 0.0406 |
| TCEANC2_Q96MN5_163_ETFHLCSR (UniProt Q96MN5) | 0.315 | 0.461 |
| TAOK2_Q9UL54_1103_ALQGCGAVGDR (UniProt Q9UL54) | -0.262 | 0.101 |
| SYNGR2_O43760_59_QMYCVFNR (UniProt O43760) | -0.0823 | -0.197 |
| TARS2_Q9BW92_603_LLGVLAESCGGK (UniProt Q9BW92) | 0.0307 | 0.165 |
| TBC1D13_Q9NVG8_131_RLCPDISFFQR (UniProt Q9NVG8) | -0.0543 | 0.0628 |
| TARS_P26639_467_FQQDDAHIFCAMEQIEDEIK (UniProt P26639) | 0.194 | 0.497 |
| TACC3_Q9Y6A5_749_CVEDYLAR (UniProt Q9Y6A5) | -0.0754 | 0.0488 |
| TANK_Q92844_177_LNIPDTATETQCSVPIQCTDK (UniProt Q92844) | -0.0664 | -0.302 |
| TCERG1_O14776_1062_YLVLDCVPEER (UniProt O14776) | 0.0479 | 0.0794 |
| TAF7_Q15545_72_LVDLPCVMESLK (UniProt Q15545) | -0.167 | -0.415 |

Reprinted at random: 3 entries already listed, in no set order.

| Target | probe-labelled cysteine peptide fold change (10 µM) | probe-labelled cysteine peptide fold change (50 µM) |
| --- | --- | --- |
| TAP2_Q03519_353_SFGAEEHEVCR (UniProt Q03519) | -0.184 | -0.261 |
| SYNGR2_O43760_59_QMYCVFNR (UniProt O43760) | -0.0823 | -0.197 |
| TATDN1_Q6P1N9_226_LMIETDAPWCGVK (UniProt Q6P1N9) | -0.116 | -0.0967 |
